# According to patent publication US20210198613A1, “MICROELECTRODE ARRAY AND USES THEREOF” (AXOSIM, INC., priority 2018, published 2021):
# At least one compound was matched to its structure with a doubt left.
# Tested on: embryonic dorsal root ganglion (DRG) explants
# Test: Nerve-On-A-Chip compound action potential (CAP) electrophysiology
# Type: cell-based, rat
smiles,measurement,value
C[C@@H]1C[C@H]2[C@@H]3CCC4=CC(=O)C=C[C@]4(C)[C@@]3(F)[C@@H](O)C[C@]2(C)[C@@]1(O)C(=O)CO [dexamethasone],effect of co-administration on forskolin-induced reduction of CAP amplitude and conduction velocity,partially restored
